Results deposited as PubChem BioAssay AID652243 (Drosophila RNAi Screening Center, 2013).
The screen tested about 24,000 reagents; this is a random part of those that have a named target and a result. Of all reagents, 246 (1%) were called active. 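Plates not normalised; calls are printed but the firefly/Renilla ratio behind them is not deposited; fold cut for lowering reported inconsistently.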 Raw values vary from plate to plate and are shown uncorrected. A number with no mark means an inactive call. Names joined by + are all predicted targets of the reagent. Not stated in the record: the amount of reagent.

- Assay: 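Fly regulators of androgen-dependent reporter output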 (primary screen)
- Cells: Drosophila S2R+ cells
- Reagent: long dsRNA against Drosophila genes
- Time to read-out: 72 h (48 h, then 24 h hormone)
- Treatment: synthetic androgen R1881 at 10 nM for 24 h
- Read-out: 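Firefly light from an androgen-responsive reporter and Renilla control light per well, raw and unnormalised, for each of two replicates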
- Direction: firefly reporter light: higher = more light from androgen-responsive reporter; Renilla control light: higher = more constitutive control signal (cell number, transfection)
- Active means: 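Hit when the log firefly-to-Renilla ratio dropped or increased by a fixed fold versus the mean of GFP or LacZ controls across duplicate plates; lowering cut given as 1.5 and as 3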
- Meaning of the calls: active = hit: reporter lowered or raised; inactive = no hit

no.	target gene	amplicon	firefly reporter light, replicate 1	firefly reporter light, replicate 2	Renilla control light, replicate 1	Renilla control light, replicate 2
1	prom	DRSC04684	1.40e5	1.26e5	1.11e6	1.04e6
2	prom	DRSC21463	1.34e6	1.40e6	1.66e6	1.76e6
3	prom	DRSC22088	9.62e5	1.10e6	1.40e6	1.45e6
4	prom	DRSC24876	5.66e5	5.27e5	5.90e5	6.98e5
5	prom	DRSC26828	3.77e5	3.23e5	7.68e5	7.10e5
6	prom	DRSC27557	1.90e5	2.02e5	4.01e5	7.57e5
7	b	DRSC03487	1.80e5	2.38e5	1.29e6	1.74e6
8	b	DRSC28837	4.00e5	3.74e5	1.25e6	1.65e6
9	CG34028	DRSC38800	6.33e5	5.26e5	1.75e6	1.34e6
10	CG42335	DRSC14597	2.00e5	2.04e5	4.89e6	3.35e6
11	CG42335	DRSC15892	2.23e5	3.23e5	3.28e6	3.88e6
12	CG42335	DRSC25666	6.62e5	8.06e5	7.39e5	5.73e5
13	orion	DRSC18213	2.64e5	2.96e5	2.66e6	2.66e6
14	orion	DRSC18214	4.19e5	4.29e5	3.50e6	3.09e6
15	Rab9D + Rab9E + Rab9Db + 1 more	DRSC27303	2.14e5	2.83e5	7.68e5	7.52e5
16	cad	DRSC23193	5.93e5	6.51e5	1.44e6	1.20e6
17	cad	DRSC27989	6.14e5	5.08e5	1.55e6	1.17e6
18	CG11828	DRSC14394	2.27e5	1.99e5	2.87e6	3.41e6
19	CG11828	DRSC22580	4.59e5	6.22e5	2.27e6	1.86e6
20	CG11828	DRSC29853	3.52e5	2.68e5	9.07e5	8.20e5
21	CG12723	DRSC19499	4.80e5	6.98e5	1.46e6	1.86e6
22	CG12723	DRSC26290	3.25e5	4.81e5	8.60e5	5.12e5
23	f	DRSC19174	5.71e5	8.12e5	2.46e6	3.16e6
24	f	DRSC19516	1.97e5	2.02e5	3.32e6	2.61e6
25	f	DRSC20331	3.06e5	3.24e5	2.88e6	2.69e6
26	f	DRSC25251	5.74e5	3.54e5	6.57e5	5.19e5
27	f	DRSC28735	5.37e5	5.29e5	1.46e6	1.61e6
28	CG2871	DRSC18230	4.83e5	5.27e5	2.38e6	2.84e6
29	CG2871	DRSC21719	5.13e5	5.58e5	2.83e6	3.40e6
30	sqz	DRSC16980	3.08e5	3.21e5	3.70e6	4.01e6
31	sqz	DRSC28971	1.10e6	8.93e5	1.60e6	1.30e6
32	CG14811	DRSC17962	4.26e5	3.64e5	4.31e6	4.22e6

Reformatted: results already given.
target gene	amplicon	firefly reporter light, replicate 1	firefly reporter light, replicate 2	Renilla control light, replicate 1	Renilla control light, replicate 2
prom	DRSC24876	5.66e5	5.27e5	5.90e5	6.98e5
prom	DRSC26828	3.77e5	3.23e5	7.68e5	7.10e5
prom	DRSC27557	1.90e5	2.02e5	4.01e5	7.57e5
b	DRSC03487	1.80e5	2.38e5	1.29e6	1.74e6
b	DRSC28837	4.00e5	3.74e5	1.25e6	1.65e6
CG34028	DRSC38800	6.33e5	5.26e5	1.75e6	1.34e6
CG42335	DRSC14597	2.00e5	2.04e5	4.89e6	3.35e6
CG42335	DRSC15892	2.23e5	3.23e5	3.28e6	3.88e6
CG42335	DRSC25666	6.62e5	8.06e5	7.39e5	5.73e5
orion	DRSC18213	2.64e5	2.96e5	2.66e6	2.66e6
orion	DRSC18214	4.19e5	4.29e5	3.50e6	3.09e6

Continued:
no.	target gene	amplicon	firefly reporter light, replicate 1	firefly reporter light, replicate 2	Renilla control light, replicate 1	Renilla control light, replicate 2
33	eIF3i	DRSC03464	8.04e5	1.05e6	1.44e6	1.50e6
34	CG14422	DRSC17919	3.44e5	3.36e5	4.28e6	3.74e6
35	CG14422	DRSC25359	1.21e6	1.87e6	9.91e5	1.09e6
36	Ugt35B1	DRSC16893	1.07e5	83442	1.02e6	8.85e5
37	Ugt35B1	DRSC27518	1.80e5	2.25e5	7.07e5	1.01e6
38	Ugt35B1	DRSC38981	7.18e5	6.49e5	1.76e6	1.71e6
39	CG17105	DRSC02574	2.36e5	2.18e5	1.34e6	1.12e6
40	CG17105	DRSC26156	3.40e5	3.45e5	7.34e5	7.04e5
41	Dnaaf3	DRSC06684	1.51e5	1.76e5	1.56e6	1.27e6
42	feo	DRSC19398	3.44e5	2.89e5	2.88e6	3.45e6
43	feo	DRSC23773	4.49e5	3.68e5	6.33e5	5.45e5
44	Flacc	DRSC20040	88767	65817	9.71e5	1.02e6
45	Flacc	DRSC25501	6.05e5	5.76e5	1.11e6	8.73e5
46	Rh2	DRSC16821	1.91e5	2.17e5	2.92e6	3.38e6
47	Rh2	DRSC25598	7.75e5	3.68e5	1.80e6	4.40e5
48	Trs23	DRSC03190	2.08e5	1.44e5	1.42e6	1.63e6
49	Trs23	DRSC29243	8.46e5	7.78e5	1.39e6	1.46e6
50	kay	DRSC13962	1.99e6	1.12e6	2.50e6	1.22e6
51	kay	DRSC16977	86086	59848	5.14e5	3.17e5
52	dnc	DRSC17759	2.21e5	2.22e5	2.60e6	2.81e6
53	dnc	DRSC17911	98701 (active)	2.01e5	3.78e6	3.78e6
54	dnc	DRSC18764	5.18e5	5.97e5	4.30e6	3.58e6
55	udd	DRSC06720	2.18e5	2.84e5	1.18e6	9.18e5
56	CG34007	DRSC38908	9.96e5	7.44e5	1.93e6	1.27e6
57	mthl11	DRSC12779	1.51e5	73756	27786	1.56e5
58	mthl11	DRSC28437	3.69e5	4.54e5	4.51e5	7.62e5
59	CG5885	DRSC02910	6.72e5	8.28e5	1.62e6	2.25e6
60	CG5885	DRSC28761	9.23e5	7.87e5	1.43e6	1.82e6
61	Manf	DRSC14091	1.01e5	89122	9.93e5	7.55e5
62	CG5455	DRSC15805	60719	56993	5.43e5	5.00e5
63	CG5455	DRSC27389	3.06e5	2.89e5	4.82e5	5.51e5
64	CG32202	DRSC09989	3.37e5	2.41e5	1.98e6	2.23e6
65	Taf10	DRSC30091	1.03e6	7.92e5	8.64e5	7.32e5
66	CG7408	DRSC10841	1.60e5	2.11e5	1.87e6	1.98e6
67	GluRIIB	DRSC03335	1.38e5	1.64e5	1.06e6	9.55e5
68	CG13202	DRSC06326	4.47e5	2.52e5	2.28e6	2.03e6
69	CG14323	DRSC14802	87166	84738	1.82e6	1.95e6
70	CG32087	DRSC10806	2.35e5	94740	2.02e6	1.23e6
71	CG32087	DRSC24793	6.26e5	5.12e5	7.07e5	6.42e5
72	UQCR-14L	DRSC15288	2.47e5	2.12e5	2.78e6	3.37e6
73	UQCR-14L	DRSC22425	3.90e5	7.51e5	9.71e5	1.67e6
74	UQCR-14L	DRSC25417	9.11e5	5.66e5	7.37e5	6.88e5
